Data as given in paper doi:10.1101/2020.05.27.118315.

Sequences of proteins named here, by UniProt entry; tags and fusion partners are left off.
UniProt Q12315: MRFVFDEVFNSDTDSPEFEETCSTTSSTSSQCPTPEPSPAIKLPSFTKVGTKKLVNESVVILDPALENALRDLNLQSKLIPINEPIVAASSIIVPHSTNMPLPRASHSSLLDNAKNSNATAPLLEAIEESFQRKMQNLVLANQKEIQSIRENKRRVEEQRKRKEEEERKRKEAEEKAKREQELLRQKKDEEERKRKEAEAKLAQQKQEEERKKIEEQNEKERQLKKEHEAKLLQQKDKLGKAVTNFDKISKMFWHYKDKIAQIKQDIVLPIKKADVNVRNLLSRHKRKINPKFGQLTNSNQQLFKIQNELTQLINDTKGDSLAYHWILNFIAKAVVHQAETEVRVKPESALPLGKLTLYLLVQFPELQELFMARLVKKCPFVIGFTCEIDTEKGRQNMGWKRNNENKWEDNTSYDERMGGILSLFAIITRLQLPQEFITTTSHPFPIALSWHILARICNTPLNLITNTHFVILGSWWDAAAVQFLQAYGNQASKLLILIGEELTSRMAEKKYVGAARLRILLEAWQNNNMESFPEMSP

T1: Med13-3xHA (S. cerevisiae) (UniProt P38931)
T1 sequence: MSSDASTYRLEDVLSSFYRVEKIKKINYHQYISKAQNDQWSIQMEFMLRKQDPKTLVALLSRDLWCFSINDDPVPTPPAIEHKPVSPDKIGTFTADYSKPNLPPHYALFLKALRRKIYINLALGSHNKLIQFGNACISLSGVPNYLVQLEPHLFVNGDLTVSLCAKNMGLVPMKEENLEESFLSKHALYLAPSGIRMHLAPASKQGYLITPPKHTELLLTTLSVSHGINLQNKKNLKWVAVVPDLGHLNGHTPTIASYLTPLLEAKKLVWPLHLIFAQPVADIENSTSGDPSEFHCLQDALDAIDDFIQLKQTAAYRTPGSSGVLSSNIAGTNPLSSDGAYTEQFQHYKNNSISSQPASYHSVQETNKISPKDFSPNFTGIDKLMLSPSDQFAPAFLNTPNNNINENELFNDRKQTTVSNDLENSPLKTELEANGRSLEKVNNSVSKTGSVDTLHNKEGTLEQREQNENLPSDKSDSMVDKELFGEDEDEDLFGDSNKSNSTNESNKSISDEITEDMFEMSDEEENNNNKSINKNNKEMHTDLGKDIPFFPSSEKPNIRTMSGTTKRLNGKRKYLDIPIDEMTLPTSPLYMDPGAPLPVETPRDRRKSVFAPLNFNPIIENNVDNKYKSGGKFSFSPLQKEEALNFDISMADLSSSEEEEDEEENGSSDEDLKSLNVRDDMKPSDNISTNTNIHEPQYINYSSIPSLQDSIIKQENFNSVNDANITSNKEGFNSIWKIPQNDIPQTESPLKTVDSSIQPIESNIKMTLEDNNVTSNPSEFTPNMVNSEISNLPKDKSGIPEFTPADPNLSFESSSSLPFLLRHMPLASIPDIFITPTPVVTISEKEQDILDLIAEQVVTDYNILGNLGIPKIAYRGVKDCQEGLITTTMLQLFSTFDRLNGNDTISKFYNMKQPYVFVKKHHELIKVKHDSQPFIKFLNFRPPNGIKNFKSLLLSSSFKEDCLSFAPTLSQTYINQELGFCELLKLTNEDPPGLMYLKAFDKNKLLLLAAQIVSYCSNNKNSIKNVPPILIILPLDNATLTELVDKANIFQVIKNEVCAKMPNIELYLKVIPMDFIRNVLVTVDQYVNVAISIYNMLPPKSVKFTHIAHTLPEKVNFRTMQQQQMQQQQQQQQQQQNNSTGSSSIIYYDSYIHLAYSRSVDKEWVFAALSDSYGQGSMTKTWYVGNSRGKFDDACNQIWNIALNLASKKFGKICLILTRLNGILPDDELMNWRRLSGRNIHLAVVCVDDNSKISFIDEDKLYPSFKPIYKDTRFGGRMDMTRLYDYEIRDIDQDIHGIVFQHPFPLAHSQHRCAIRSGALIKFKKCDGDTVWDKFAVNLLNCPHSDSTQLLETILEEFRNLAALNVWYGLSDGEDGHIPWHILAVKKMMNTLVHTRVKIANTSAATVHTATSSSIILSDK


Experiments:
[1] = biological target: T1, Med13-3xHA (S. cerevisiae); test: affinity purification with mass spectrometry
[2] = biological target: T1, Med13-3xHA (S. cerevisiae); test: affinity purification with mass spectrometry; remark: listed apart in the source

Row | Molecule | binding [1] | binding [2]
1 | Gle1 (from UniProt Q12315 1-538) | binds | 
2 | Snx4 (protein, UniProt P47057 1-423) MTDKGKNDLTSKAKDKARGNPEKPPYWFEIIVSDPQKRTGDPGSSSGYVSYQISTKTNNTSFYDNRGDPESIIVVHRRYSDLLLLHDILLNRFPTCIIPPLPDKKVFQYIAGDRFSQRFTQKRCHSLQNFLRRVSLHPDLSQSKVFKTFLVSKDWESHRKVLQDSLQPNKDEVTDAFMNAFKTVHKQNEEFTEIREKSDKLDRTVTKIDKLFHKVVKKNDSMSEDYTKLGSNLQELQELVTGENEELAAKLKIFNEGVTQLSYGLQDLTKYLDYEYIVDLKDLEHYIDSMRQLIKLKDQKQIDYEELSDYLTRSIKEKNNLISGYGGSNFFANKLEELAGINQEASRREKINKLEGKITSLTGELENAKKVADGFEQECLKEIDHFESVKTAEIKKSLGSLADHHIEFYERILEAWEKVDDSL |  | binds

Like-named read-outs stand apart in the source and are kept apart here. These are yes or no findings as the source states them, for the method shown. Binding seen in cells or lysates may run through a third protein. A yes stands for co-enrichment or nearness to the bait. Other partners may have been found.
